From paper PMC3422239
Results are given in words; binding and its absence hold for the method and conditions named. For some assays here: A result given as binding can be weak or reduced; the word gives no strength. Sequences can lack the tags named with a protein.

Experiments:
[1] = biological target: T1, GFP-IRS2-1-600 (mouse) (UniProt P81122); test: far-Western, overlay or dot blot; GFP-tagged IRS-2 pulled down with GFP-Trap from HEK293 or Flp-In HEK293 lysates, SDS-PAGE, nitrocellulose; membrane incubated overnight at 4°C with 14-3-3ζ-HRP, ECL; cells serum starved, IGF-1, or PI-103, wortmannin or Akti-1/2 before IGF-1; both purified
T1 sequence: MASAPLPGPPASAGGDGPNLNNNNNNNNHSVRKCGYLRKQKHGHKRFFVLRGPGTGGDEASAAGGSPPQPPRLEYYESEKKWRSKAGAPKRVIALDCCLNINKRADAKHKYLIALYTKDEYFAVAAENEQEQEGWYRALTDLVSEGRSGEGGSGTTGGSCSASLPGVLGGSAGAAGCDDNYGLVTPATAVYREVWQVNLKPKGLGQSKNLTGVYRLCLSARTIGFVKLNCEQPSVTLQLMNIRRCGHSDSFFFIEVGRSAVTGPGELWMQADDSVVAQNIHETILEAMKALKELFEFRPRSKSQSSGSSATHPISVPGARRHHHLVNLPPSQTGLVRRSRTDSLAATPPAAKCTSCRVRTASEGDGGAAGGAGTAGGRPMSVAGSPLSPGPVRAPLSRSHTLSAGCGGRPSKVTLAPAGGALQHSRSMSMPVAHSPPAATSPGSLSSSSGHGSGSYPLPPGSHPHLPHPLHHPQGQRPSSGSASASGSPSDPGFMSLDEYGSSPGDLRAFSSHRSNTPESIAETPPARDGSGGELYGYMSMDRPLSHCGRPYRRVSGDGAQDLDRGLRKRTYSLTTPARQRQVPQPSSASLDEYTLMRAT

[2] = biological target: T2, GFP-IRS2-S573A (mouse) (UniProt P81122); test: as above
T2 sequence: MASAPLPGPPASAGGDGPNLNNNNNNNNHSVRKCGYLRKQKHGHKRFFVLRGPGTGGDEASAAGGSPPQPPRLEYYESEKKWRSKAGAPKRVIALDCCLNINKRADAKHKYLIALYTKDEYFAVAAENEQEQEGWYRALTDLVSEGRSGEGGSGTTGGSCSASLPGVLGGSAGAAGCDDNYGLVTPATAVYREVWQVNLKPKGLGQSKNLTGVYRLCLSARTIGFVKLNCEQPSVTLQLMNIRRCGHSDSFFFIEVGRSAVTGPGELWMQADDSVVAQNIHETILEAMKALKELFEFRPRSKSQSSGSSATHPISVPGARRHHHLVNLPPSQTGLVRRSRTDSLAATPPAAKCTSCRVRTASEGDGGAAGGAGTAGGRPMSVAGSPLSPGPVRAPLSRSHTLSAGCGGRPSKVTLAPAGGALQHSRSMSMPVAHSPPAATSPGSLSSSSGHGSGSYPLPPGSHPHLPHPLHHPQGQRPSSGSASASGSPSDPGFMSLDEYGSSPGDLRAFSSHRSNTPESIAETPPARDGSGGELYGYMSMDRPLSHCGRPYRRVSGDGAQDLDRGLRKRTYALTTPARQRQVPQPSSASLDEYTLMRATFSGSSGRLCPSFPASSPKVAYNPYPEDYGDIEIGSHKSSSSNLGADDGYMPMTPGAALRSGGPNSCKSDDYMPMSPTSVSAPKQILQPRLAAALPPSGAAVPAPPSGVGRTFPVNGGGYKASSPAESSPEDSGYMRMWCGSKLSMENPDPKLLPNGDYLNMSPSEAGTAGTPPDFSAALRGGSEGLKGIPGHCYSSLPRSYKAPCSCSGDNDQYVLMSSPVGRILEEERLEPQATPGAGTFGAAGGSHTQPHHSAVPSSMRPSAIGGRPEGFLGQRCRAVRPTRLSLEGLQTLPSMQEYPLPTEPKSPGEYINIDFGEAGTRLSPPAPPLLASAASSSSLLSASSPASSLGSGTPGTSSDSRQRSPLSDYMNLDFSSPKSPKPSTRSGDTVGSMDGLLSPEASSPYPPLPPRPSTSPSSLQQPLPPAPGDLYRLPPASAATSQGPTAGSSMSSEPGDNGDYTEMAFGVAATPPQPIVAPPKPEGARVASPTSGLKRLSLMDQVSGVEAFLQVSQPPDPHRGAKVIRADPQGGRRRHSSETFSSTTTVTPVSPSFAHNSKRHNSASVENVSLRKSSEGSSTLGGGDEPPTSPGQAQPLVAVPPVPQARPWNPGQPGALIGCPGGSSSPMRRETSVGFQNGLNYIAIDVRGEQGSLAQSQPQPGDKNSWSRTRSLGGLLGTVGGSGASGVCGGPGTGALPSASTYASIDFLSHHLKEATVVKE

binding [1]: binds
binding [2]: no binding
Substance: Recombinant human 14-3-3ζ-HRP
